Results as given in PMC7994381.
Substitutions are numbered along the chain they refer to. Numbers in names are those of the source. These are yes or no findings as the source states them, for the method shown. Binding seen in cells or lysates may run through a third protein. Some results given as binding are weak or reduced against the parent protein; the word gives no strength. For part of these data: Where a sequence is shown, tags or fusion partners need not be part of it. Blank lines part the entries; values can stand above or below the binder they belong to.

Sequences of proteins named here, by UniProt entry; tags and fusion partners are left off.
UniProt P04198: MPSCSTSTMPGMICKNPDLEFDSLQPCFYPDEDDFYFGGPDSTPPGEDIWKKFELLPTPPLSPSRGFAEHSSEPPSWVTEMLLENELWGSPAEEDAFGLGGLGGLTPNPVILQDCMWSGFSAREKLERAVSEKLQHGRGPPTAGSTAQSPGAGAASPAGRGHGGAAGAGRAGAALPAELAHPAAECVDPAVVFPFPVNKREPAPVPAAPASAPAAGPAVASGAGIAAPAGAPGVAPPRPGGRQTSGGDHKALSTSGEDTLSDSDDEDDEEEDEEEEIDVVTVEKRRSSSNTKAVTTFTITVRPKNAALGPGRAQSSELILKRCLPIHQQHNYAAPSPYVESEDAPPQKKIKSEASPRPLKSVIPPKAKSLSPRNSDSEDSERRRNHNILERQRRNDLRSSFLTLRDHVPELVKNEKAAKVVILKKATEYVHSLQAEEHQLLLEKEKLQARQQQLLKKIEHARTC

Legend:
[1] = biological target: HA-tagged full-length MYCN (amino acids 1–464) (human) (UniProt P04198); experiment: co-IP; HEK293T co-transfected with HA-MYCN and Flag-USP3^wt or Flag-USP3^C168S for 24 h; BC100 lysis buffer; HA-MYCN precipitated with HA antibody; blot for Flag-USP3
[2] = biological target: endogenous MYCN (human (endogenous in Kelly and SK-N-BE(2)C)) (UniProt P04198); experiment: co-IP; endogenous proteins, total cellular protein extracts of Kelly and SK-N-BE(2)C; BC100 buffer; precipitated with MYCN-specific antibody or control IgG; blot for USP3

binding [1]: binds
B1: Flag-USP3^wt (enzyme, UniProt Q9Y6I4 1-520)
chain: MECPHLSSSVCIAPDSAKFPNGSPSSWCCSVCRSNKSPWVCLTCSSVHCGRYVNGHAKKHYEDAQVPLTNHKKSEKQDKVQHTVCMDCSSYSTYCYRCDDFVVNDTKLGLVQKVREHLQNLENSAFTADRHKKRKLLENSTLNSKLLKVNGSTTAICATGLRNLGNTCFMNAILQSLSNIEQFCCYFKELPAVELRNGKTAGRRTYHTRSQGDNNVSLVEEFRKTLCALWQGSQTAFSPESLFYVVWKIMPNFRGYQQQDAHEFMRYLLDHLHLELQGGFNGVSRSAILQENSTLSASNKCCINGASTVVTAIFGGILQNEVNCLICGTESRKFDPFLDLSLDIPSQFRSKRSKNQENGPVCSLRDCLRSFTDLEELDETELYMCHKCKKKQKSTKKFWIQKLPKVLCLHLKRFHWTAYLRNKVDTYVEFPLRGLDMKCYLLEPENSGPESCLYDLAAVVVHHGSGVGSGHYTAYATHEGRWFHFNDSTVTLTDEETVVKAKAYILFYVEHQAKAGSDKL

binding [2]: binds
B2: endogenous USP3 (enzyme, UniProt Q9Y6I4 1-520)
chain: B1 chain

binding [1]: binds
B3: Flag-USP3^C168S (enzyme, UniProt Q9Y6I4 1-520)
chain: B1 chain with C168S
